The values that follow come from the supplement of paper PMC10849652.

Sequences of proteins named here, by UniProt entry; tags and fusion partners are left off. A change or cut given only in a name is not applied to a line headed by its entry.
UniProt Q6UWU4: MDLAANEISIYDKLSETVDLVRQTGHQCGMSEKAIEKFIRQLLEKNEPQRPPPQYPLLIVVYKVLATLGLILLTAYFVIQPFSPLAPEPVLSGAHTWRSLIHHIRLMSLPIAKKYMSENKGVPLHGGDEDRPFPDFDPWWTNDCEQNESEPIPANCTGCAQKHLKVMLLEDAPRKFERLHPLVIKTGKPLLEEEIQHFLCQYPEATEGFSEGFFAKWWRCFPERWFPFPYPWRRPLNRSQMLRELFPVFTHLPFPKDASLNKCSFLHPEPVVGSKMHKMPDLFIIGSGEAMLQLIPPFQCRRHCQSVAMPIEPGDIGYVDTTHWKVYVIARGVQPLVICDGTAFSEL
UniProt Q96EU7: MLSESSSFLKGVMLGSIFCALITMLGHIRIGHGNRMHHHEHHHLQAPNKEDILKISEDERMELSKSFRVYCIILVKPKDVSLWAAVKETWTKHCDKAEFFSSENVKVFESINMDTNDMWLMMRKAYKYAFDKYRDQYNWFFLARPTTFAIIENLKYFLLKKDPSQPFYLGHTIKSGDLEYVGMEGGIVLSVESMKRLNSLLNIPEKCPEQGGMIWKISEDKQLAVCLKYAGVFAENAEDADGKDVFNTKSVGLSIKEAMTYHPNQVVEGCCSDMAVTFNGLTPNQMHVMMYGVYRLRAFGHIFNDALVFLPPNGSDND
UniProt Q14444, whole entry, looked up: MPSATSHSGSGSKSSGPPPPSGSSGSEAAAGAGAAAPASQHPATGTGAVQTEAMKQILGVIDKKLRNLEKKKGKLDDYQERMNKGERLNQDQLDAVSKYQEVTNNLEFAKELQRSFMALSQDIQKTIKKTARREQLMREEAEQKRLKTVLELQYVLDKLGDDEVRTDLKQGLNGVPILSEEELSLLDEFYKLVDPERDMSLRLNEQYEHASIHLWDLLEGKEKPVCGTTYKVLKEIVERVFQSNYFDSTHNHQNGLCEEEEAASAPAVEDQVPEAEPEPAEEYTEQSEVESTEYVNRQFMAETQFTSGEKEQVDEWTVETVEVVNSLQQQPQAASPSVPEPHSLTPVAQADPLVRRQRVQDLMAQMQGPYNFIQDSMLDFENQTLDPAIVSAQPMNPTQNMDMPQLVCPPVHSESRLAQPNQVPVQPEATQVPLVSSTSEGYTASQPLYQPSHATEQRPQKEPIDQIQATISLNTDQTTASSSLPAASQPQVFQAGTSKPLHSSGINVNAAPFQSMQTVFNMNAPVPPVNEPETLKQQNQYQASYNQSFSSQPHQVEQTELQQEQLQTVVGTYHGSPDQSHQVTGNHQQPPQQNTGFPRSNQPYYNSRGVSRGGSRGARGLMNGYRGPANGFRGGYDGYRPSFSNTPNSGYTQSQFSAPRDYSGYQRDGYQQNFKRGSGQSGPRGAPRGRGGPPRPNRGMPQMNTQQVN
UniProt Q8WUQ7: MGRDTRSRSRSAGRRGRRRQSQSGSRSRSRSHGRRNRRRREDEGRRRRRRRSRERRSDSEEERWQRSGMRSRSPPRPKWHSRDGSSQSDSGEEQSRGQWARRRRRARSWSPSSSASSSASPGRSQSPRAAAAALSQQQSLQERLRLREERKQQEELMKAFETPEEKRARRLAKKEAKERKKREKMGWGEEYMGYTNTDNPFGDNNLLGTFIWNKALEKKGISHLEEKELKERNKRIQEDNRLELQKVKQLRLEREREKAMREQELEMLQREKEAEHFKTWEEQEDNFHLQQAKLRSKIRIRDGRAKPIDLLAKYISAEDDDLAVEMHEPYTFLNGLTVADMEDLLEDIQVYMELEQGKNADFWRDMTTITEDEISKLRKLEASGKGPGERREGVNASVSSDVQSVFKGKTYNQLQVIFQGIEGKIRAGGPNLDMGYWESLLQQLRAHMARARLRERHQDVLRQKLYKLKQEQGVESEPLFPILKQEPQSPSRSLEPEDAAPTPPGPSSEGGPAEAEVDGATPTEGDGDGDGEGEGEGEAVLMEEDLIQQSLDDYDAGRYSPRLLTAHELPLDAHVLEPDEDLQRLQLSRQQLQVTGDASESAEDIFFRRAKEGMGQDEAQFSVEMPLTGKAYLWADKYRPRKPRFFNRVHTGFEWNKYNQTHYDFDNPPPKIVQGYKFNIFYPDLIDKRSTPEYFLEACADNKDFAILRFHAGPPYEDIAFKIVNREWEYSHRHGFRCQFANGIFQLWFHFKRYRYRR
UniProt Q8TCD1: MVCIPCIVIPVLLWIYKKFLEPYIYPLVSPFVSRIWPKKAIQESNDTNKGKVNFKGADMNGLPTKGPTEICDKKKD
UniProt Q9NZ63: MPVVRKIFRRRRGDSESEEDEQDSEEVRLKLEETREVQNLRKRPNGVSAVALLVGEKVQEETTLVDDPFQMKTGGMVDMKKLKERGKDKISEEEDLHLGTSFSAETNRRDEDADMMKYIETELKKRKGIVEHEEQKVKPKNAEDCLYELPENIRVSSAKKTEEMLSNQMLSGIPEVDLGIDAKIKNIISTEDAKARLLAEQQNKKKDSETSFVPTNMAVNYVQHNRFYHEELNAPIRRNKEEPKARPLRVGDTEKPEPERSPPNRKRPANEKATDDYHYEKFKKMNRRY
UniProt Q8N6N3: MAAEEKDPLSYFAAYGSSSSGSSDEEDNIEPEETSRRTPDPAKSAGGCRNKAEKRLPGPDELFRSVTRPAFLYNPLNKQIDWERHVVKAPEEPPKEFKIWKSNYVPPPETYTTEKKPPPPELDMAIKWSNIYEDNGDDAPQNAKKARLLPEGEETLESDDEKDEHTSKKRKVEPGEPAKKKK
UniProt P27708: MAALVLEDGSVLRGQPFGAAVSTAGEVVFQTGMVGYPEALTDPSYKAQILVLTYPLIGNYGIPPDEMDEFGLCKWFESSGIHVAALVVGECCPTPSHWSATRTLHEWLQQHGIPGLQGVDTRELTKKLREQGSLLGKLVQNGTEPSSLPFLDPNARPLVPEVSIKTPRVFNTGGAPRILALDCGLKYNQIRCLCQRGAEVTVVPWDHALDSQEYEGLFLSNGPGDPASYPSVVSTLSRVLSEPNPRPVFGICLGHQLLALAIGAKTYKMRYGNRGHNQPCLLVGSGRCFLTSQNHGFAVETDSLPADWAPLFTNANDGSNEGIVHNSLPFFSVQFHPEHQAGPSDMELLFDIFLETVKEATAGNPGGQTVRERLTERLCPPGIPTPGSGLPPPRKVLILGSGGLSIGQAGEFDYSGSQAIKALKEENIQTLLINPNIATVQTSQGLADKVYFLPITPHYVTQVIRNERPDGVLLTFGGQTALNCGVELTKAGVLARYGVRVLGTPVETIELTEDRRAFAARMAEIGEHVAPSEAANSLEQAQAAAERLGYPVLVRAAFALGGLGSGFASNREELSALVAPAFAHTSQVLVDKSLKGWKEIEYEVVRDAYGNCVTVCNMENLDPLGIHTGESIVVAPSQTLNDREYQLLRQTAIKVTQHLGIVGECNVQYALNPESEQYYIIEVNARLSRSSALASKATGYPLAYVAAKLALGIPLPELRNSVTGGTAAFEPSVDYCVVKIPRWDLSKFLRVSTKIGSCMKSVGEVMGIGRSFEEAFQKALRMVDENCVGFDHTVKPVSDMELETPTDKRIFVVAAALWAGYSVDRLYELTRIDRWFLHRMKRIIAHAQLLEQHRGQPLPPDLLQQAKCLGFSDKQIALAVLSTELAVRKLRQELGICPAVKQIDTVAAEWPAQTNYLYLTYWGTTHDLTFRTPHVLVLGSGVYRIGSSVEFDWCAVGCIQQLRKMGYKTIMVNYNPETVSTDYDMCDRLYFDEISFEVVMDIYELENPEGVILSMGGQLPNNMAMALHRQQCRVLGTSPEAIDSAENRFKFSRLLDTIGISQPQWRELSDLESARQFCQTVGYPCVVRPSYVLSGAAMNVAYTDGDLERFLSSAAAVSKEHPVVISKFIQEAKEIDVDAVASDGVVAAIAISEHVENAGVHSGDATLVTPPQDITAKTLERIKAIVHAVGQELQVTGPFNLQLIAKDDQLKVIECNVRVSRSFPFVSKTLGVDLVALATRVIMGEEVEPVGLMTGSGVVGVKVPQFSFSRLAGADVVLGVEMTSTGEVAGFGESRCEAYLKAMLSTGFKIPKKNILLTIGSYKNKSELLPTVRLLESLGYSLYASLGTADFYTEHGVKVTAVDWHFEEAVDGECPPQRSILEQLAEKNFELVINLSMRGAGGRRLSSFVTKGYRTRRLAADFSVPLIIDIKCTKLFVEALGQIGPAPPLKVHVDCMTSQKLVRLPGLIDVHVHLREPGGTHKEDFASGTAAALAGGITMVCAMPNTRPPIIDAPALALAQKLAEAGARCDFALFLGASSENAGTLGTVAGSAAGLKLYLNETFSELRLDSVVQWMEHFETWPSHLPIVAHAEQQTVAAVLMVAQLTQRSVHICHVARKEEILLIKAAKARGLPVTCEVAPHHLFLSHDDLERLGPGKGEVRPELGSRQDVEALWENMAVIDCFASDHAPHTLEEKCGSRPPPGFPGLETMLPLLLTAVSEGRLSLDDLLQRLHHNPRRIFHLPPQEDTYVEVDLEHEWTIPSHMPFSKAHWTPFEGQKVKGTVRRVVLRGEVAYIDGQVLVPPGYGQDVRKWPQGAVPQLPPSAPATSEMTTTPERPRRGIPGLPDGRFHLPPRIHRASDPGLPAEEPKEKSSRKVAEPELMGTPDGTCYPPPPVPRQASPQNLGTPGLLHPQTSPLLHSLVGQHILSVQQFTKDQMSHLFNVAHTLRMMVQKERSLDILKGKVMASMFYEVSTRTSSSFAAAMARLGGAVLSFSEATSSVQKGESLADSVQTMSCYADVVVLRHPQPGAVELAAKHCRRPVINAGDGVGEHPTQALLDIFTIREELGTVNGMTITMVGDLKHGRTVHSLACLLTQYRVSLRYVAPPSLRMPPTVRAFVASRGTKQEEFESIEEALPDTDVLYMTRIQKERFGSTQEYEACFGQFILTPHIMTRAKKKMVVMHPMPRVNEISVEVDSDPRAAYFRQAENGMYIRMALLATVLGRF
UniProt Q8N1Q1: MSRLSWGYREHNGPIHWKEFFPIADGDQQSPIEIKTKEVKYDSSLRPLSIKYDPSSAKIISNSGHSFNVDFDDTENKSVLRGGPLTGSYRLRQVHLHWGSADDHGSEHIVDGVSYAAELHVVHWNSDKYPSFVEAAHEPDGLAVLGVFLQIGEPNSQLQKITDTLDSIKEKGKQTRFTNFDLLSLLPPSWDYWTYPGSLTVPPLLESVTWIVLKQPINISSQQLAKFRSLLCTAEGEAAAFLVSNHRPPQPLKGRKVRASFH
UniProt Q13901: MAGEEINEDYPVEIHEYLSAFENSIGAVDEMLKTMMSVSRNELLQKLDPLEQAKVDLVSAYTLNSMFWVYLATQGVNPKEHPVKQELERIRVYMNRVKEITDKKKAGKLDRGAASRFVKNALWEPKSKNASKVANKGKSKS
UniProt Q96GQ5: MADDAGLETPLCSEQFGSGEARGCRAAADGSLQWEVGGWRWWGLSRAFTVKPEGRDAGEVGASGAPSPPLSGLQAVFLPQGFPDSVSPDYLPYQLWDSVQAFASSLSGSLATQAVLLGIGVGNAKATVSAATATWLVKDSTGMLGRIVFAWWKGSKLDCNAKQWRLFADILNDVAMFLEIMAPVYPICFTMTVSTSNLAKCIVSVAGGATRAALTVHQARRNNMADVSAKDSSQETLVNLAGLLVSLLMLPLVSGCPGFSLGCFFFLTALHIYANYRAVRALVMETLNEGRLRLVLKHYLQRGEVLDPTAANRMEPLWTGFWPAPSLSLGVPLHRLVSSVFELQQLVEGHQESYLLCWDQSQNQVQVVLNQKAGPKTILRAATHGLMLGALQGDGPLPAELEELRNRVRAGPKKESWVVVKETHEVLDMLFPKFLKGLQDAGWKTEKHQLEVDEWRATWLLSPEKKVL
UniProt Q96LT7: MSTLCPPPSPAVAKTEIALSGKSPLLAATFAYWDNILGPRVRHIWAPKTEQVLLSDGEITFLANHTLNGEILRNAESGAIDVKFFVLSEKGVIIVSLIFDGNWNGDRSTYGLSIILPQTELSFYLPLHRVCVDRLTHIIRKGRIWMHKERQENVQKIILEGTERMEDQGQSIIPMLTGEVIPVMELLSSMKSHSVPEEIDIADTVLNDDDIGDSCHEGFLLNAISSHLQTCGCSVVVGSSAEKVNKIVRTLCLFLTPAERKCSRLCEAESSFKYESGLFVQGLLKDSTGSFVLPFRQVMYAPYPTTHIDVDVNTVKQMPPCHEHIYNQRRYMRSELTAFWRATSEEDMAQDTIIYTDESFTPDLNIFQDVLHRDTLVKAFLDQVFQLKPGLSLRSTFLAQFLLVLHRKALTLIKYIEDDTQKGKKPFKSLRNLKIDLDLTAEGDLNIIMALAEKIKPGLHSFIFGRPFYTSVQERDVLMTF
UniProt P47756, whole entry, looked up: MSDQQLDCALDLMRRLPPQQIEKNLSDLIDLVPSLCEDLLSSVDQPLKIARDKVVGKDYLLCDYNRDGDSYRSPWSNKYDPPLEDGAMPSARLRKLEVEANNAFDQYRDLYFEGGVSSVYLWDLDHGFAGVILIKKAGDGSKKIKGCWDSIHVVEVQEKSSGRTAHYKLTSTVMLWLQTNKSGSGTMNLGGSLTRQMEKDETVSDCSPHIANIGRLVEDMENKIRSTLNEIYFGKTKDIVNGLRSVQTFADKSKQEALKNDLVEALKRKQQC

This is one part of the list.

Compound in this assay: NC(=O)Nc1cc(-c2cccc(F)c2)sc1C(=O)N[C@H]1CCCNC1
As to the kind of experiment: log2 fold change, soluble protein after heating vs DMSO (PISA); higher = thermal stabilisation; K562 cells, 10 uM, 30 min; active = over 0.2 and 3.5 SD of the protein, either way, in both replicates (recomputed). The method in brief: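 Thermal stability values are relative to control samples and come from duplicates. They are expressed as log2 fold changes. For measurement, K562 cells (2×10^6 cells/mL) received 10 μM compound for 30 min, and aliquots were heated for 3 min over 48°C-58°C, pooled, and extracted at 4°C in PBS with 0.5% NP-40. Soluble protein, the supernatant after 21,000xg for 90 min, was quantified by TMTpro 16plex LC-MS/MS with equalised channel sums.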
Take C8orf76 (UniProt Q96K31): the log2 fold change is inactive: 0.148.
To C6orf89 isoform 2 (UniProt Q6UWU4) belongs inactive: -0.056; to CALU isoform 4 (UniProt O43852), inactive: -0.019.
As for C1GALT1C1 (UniProt Q96EU7), the log2 fold change is inactive: -0.052.
To C9orf40 (UniProt Q8IXQ3) belongs inactive: -0.117.
To CAPRIN1 (UniProt Q14444) belongs inactive: 0.047; to C11orf68 (UniProt Q9H3H3), inactive: -0.004; to CACTIN isoform 2 (UniProt Q8WUQ7), inactive: 0.04.
To C18orf32 (UniProt Q8TCD1) belongs inactive: -0.014.
On to C1GALT1 (UniProt Q9NS00), for which the log2 fold change was inactive: -0.023.
To C17orf80 (UniProt Q9BSJ5) belongs inactive: -0.019.
The result for CANX isoform 2 (UniProt P27824) reads inactive: 0.089.
The result for C4BPA (UniProt P04003) reads inactive: -0.19.
On to C12orf29 (UniProt Q8N999), for which the log2 fold change is inactive: -0.129.
The result for CAB39 (UniProt Q9Y376) reads inactive: -0.026; that for BTRC (UniProt Q9Y297), inactive: 0.
To BUB1B isoform 3 (UniProt O60566) belongs inactive: 0.
To C12orf73 (UniProt Q69YU5) belongs inactive: -0.032; to C9orf78 (UniProt Q9NZ63), inactive: 0.048; to C1orf52 (UniProt Q8N6N3), inactive: 0.051.
Turning to CAD (UniProt P27708), the log2 fold change is inactive: 0.033.
To CA13 (UniProt Q8N1Q1) belongs inactive: 0.047; to CALB1 (UniProt P05937), inactive: -0.029.
The result for C1D (UniProt Q13901) reads inactive: 0.187; that for C16orf58 (UniProt Q96GQ5), inactive: -0.047.
For C9orf72 (UniProt Q96LT7), the log2 fold change was inactive: 0.028.
As for C19orf53 (UniProt Q9UNZ5), the log2 fold change was inactive: 0.136.
The result for CAPZB isoform 2 (UniProt P47756) reads inactive: 0; that for C7 (UniProt P10643), inactive: 0.001; that for C18orf25 isoform 2 (UniProt Q96B23), inactive: 0.101.
The result for CARD8 isoform 5 (UniProt Q9Y2G2) reads inactive: 0.052.
